Data reported in publication PMC12040169 (PLOS Biology, 2025).
The other results are listed elsewhere or left out.

Each compound was assayed on T1, CTL2-GFP (C. trachomatis L2/434/Bu, GFP-expressing). Settings: bulk GFP, single well; 28.5 h, 10 µM; inhibitor.
T1 construct: L2/434/Bu, GFP-expressing
Set-up: species or system HeLa; Intracellular C. trachomatis growth in HeLa cells, bulk GFP fluorescence relative to DMSO

Row | SMILES | % of control remaining
1 | CN(C)Cc1cn([C@H]2CO[C@H]3[C@@H]2OC[C@@H]3NC(=O)NC2CCCCC2)nn1 [CBK289493] | 132.356%
2 | COC(=O)N1CCN(C(=O)c2cc(C(C)C)n3ncnc3n2)CC1 [CBK306509] | 106.592%
3 | CCc1nnc(SCC(=O)N2c3ccccc3Sc3ccccc32)[nH]1 [CBK268687] | 122.908%
4 | C=Cn1ncc(CN(Cc2ccc(C)o2)CC2CCCO2)c1C (centres unmarked) [CBK283292] | 130.01%
5 | CC(=O)Nc1cccc(-c2nccnc2NCC2CC2)c1 [CBK037962] | 159.405%
6 | COc1ccc(CN(C)c2c(C)nc3c(OCCCN(C)S(C)(=O)=O)cccn23)cc1 [CBK147468] | 114.898%
7 | Cc1ccc2nsnc2c1NC(=O)CN1CCCCC1 [CBK269330] | 133.192%
8 | N#C/C(=C\c1cn(-c2ccccc2)nc1-c1cccc(S(=O)(=O)N2CCCCCC2)c1)c1nc2ccccc2c(=O)[nH]1 [CBK266347] | 92.7521%
9 | c1ccc(CCN2CCC(Oc3nccnc3OCc3cccnc3)CC2)nc1 [CBK083180] | 107.689%
10 | Cc1ccc(-c2noc(-c3cccnc3N3CCC(C(=O)O)CC3)n2)cc1 [CBK287260] | 126.585%
11 | COC(=O)c1ccccc1NC(=O)CN(c1cccc(Cl)c1Cl)S(C)(=O)=O [CBK264612] | 98.3225%
12 | Cc1ccc(C)c(S(=O)(=O)Nc2ccc(O)c(Sc3nc[nH]n3)c2)c1 [CBK266894] | 137.254%
13 | O=C(N/N=C/c1ccc(O)cc1)c1cc[n+](Cc2ccccc2)cc1 [CBK262047C] | 112.796%
14 | Cc1[nH]c(=O)[nH]c(=O)c1CCC(=O)OCc1nccn1Cc1ccccc1 [CBK297939] | 142.677%
15 | CC(C)(C)SCCOC(=O)C1CC(=O)N(Cc2ccccn2)C1 (centres unmarked) [CBK303991] | 132.163%
16 | O=C(CCCN1CCN(CCCC(=O)c2ccc(F)cc2)CC1)c1ccc(F)cc1 [CBK025317C] | 100%
17 | O=C(NC(c1ccccc1)c1ccsc1)C1CCN(C/C=C/c2ccccc2)CC1 (centres unmarked) [CBK148449] | 110.536%
18 | C/C(CCc1ccccc1)=N\NC(=O)c1ccc(CN2CCOCC2)cc1 [CBK262752] | 97.953%
19 | CN(Cc1cccc(Oc2ccccc2)c1)Cc1cccc2ccccc12 [CBK261857] | 112.846%
20 | CC(C)(CO)CNc1cncc(-c2cccs2)n1 [CBK065599] | 101.458%
21 | O=C1c2ccccc2CN1c1ccccc1 [CBK113189] | 69.3499%
22 | CN1C(=O)C(CC(=O)Nc2ccc(F)cc2)N(CCc2ccccc2)C1=S (centres unmarked) [CBK263861] | 74.3712%
23 | CC1CCN(CCN2CCn3c2nc2ccccc23)CC1 [CBK265467B] | 128.019%
24 | CC(C)[C@H](CO)Nc1cncc(-c2cccc3ccccc23)n1 [CBK065501] | 123.969%
25 | O=C(O)c1ccc(NC(=O)C2CCN(S(=O)(=O)c3ccccc3)CC2)cc1 [CBK265181] | 106.284%

Row | SMILES | % of control remaining
26 | COc1ccccc1N1CCN(CC(O)COCc2ccc3c(c2)OCO3)CC1 (centres unmarked) [CBK278323C] | 100%
27 | O=C(c1cc(C(F)(F)F)cc(C(F)(F)F)c1)N1CCN(Cc2ccc3c(c2)OCO3)CC1 [CBK074756] | 80.2783%
28 | Cn1ccc(N2CCCC(NC(=O)c3scnc3C(C)(C)C)C2=O)n1 (centres unmarked) [CBK305453] | 85.0327%
29 | Cn1ccc2cc(NS(=O)(=O)c3ccc4[nH]c(=O)[nH]c(=O)c4c3)ccc21 [CBK286364] | 83.09%
30 | CC(=O)Nc1cccc(-c2cc(N3CCN(C(=O)c4ccco4)CC3)ncn2)c1 [CBK036959] | 118.619%
31 | O=C1c2ccccc2C(=O)c2c1cccc2S(=O)(=O)N1CCN(C(=O)C2CCCO2)CC1 (centres unmarked) [CBK200038] | 21.5422%
32 | CCOC(=O)c1ccc2ncc3c(=O)nc(N)sc3c2c1 [CBK291218] | 122.282%
33 | OCC[C@H]1CN2CCCC2CN1Cc1cccc(Cl)c1Cl (some centres unmarked) [CBK285429] | 129.223%
34 | CC(Sc1nc2ccccc2c(=O)n1C1CC1)C(=O)N1CCOCC1 (centres unmarked) [CBK306045] | 97.3388%
35 | C(=N\Nc1nnnn1-c1ccccc1)/c1ccco1 [CBK007334] | 120.339%
36 | COc1ccc(-n2nnnc2SCC(=O)c2ccc(O)c(O)c2)cc1 [CBK293969] | 159.904%
37 | O=C(CNC(=O)c1ccc2c(c1)OCCO2)N/N=C/c1cccs1 [CBK261987] | 106.427%
38 | C[C@H]1CN2CCCC2CN1Cc1ccc2c(c1)CCO2 (some centres unmarked) [CBK285443] | 107.248%
39 | CCC(c1ccc(F)cc1)N(C)C(=O)Cn1cc(C(=O)NC2CCCCC2)ccc1=O (centres unmarked) [CBK286106] | 16.8484%
40 | CCOC(=O)C1=C(Nc2ccc(O)cc2)C(=O)N(C(C)(C)C)C1 [CBK005677] | 118.572%
41 | CC(=O)Nc1ccc(-c2csc(NC(=O)NS(=O)(=O)c3ccc(C)cc3)n2)cc1 [CBK297084] | 112.078%
42 | COc1ccc(/C=C/C(=O)C2CC2)c(C(=O)O)c1OC [CBK286639] | 100.147%
43 | CCN1CCCC1CNC(=O)C(=O)Nc1ccccc1OC (centres unmarked) [CBK266865] | 87.5812%
44 | CCOc1cc(/C=C2\SC(=S)N(Cc3ccccc3)C2=O)cc(Cl)c1OC(=O)c1ccco1 [CBK265509] | 100%
45 | CC(C)(C)c1ccc(-n2cc(-c3ccc(F)cc3)nn2)cc1 [CBK113112] | 107.194%
46 | CS(=O)(=O)N(CC(=O)Nc1ccc(S(N)(=O)=O)cc1)Cc1ccc(Cl)cc1 [CBK267512] | 110.378%
47 | CCN(C(=O)Nc1ccc(-c2ccco2)cc1)C1CCOCC1 [CBK306916] | 115.885%
48 | Cc1nc(O)cc(CCn2cc(-c3cncnc3)nn2)n1 [CBK306712] | 103.483%
49 | OC1CCN(c2nccc(C(F)(F)F)n2)CC1 [CBK038372] | 111.757%
50 | O=S(=O)(Nc1ccc(C(O)(C(F)(F)F)C(F)(F)F)cc1)c1ccc(-c2ccon2)s1 [CBK062105] | 124.327%

Arranged by count of non-hydrogen atoms (descending): 3 of the compounds above
Row | SMILES | % of control remaining
47 | CCN(C(=O)Nc1ccc(-c2ccco2)cc1)C1CCOCC1 [CBK306916] | 115.885%
43 | CCN1CCCC1CNC(=O)C(=O)Nc1ccccc1OC (centres unmarked) [CBK266865] | 87.5812%
49 | OC1CCN(c2nccc(C(F)(F)F)n2)CC1 [CBK038372] | 111.757%
